Results are given in words; binding and its absence hold for the method and conditions named. Binding seen in cells or lysates may run through a third protein. Some results given as binding are weak or reduced against the parent protein; the word gives no strength. Where a sequence is shown, tags or fusion partners need not be part of it.
How the values were obtained:
[1] = target: T1, MCA-II-a-tagRFP expressed from RPS5apro in Arabidopsis (Arabidopsis thaliana) (UniProt O64517); test: FRET or BRET
T1 sequence: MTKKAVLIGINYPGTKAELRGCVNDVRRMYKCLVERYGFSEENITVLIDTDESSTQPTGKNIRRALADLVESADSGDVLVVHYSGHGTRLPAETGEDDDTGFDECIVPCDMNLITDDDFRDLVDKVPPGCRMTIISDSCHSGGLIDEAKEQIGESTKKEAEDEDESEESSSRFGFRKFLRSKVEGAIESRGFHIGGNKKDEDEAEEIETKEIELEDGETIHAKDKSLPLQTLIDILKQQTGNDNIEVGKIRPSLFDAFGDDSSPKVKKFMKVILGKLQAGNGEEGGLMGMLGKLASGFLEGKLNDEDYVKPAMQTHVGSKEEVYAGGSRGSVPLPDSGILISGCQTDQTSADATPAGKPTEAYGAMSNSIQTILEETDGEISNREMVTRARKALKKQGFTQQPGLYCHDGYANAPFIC

[2] = target: T1, MCA-II-a-tagRFP expressed from RPS5apro in Arabidopsis (Arabidopsis thaliana); test: proximity ligation

B1: PUX10-GFP, ubiquitination regulatory X (UBX) domain-containing 10, expressed from PUX10pro in Arabidopsis (protein, UniProt Q9M0N1 1-480)
chain: MVDTVDKLGYFQAITGLEDADLCTEILQAHGWDLELAISSFTSSDQDASSSAVDGGGNNRDHDHNNATVTPDYPPRGIVDDTELVMRDDGGGNRGPGVAWRIITLPISIVSGSLGLVSGAIGLGIWAAGGVLSYSLGMLGFRSGRGGGSESARLVSVSSAVGEAMEFVALFDRDYGSNNAFKIDFVVEGFMDALQRSRSSFKLLFVYLHSPDHPDTPVFCGGTLCNEAVVAFVNENFVSWGGSIRSSEGFKMSNSLKASRFPFCAVVMPAANQRIALLQQVEGPKSPEEMLAILQRIVEDSSPTLVTARVEAEERRTNLRLREEQDAAYRAALEADQAREQQRQEEKERLEREAAEAERKLKEEEEARERAAREAEERQAARVRMRQEKALALGEEPEKGPDVTQVLVRFPNGERKGRMFKSETKIQTLYDYVDSLGLLDTEEYSLITNFPRTVYGRDKESMSLKDAGLHPQASLFIEIN
B1 was tested. Which binding [1] did it give?
The binding was “binds”.

What about the binding [2] of the same binder?
Its binding is “binds”.

From doi:10.1101/2023.03.19.533321
